No constants are given. Whether binding was seen depends on the method and setting. Some binding calls cover weakened binding; strength is not graded here.
Tests used:
[1] = biological target: CD28-9C CD28TM CD3zΔ capture leucine zipper; assay: CD34 and CD20 staining of double-transduced cells, flow cytometry (FIG. 16)
[2] = biological target: CD28-9C CD28TM CD3zΔ capture leucine zipper; assay: CD34 and CD20 staining, flow cytometry (FIG. 16)

binding [1]: binds | binding [2]: binds
B1: RQR-RR12EE345L (designed binder)
chain: CPYSNPSLCSGGGGSELPTQGTFSNVSTNVSPAKPTTTACPYSNPSLCGGGGSGGGSALGLEIRAAFLRQRNTALRTEVAELEQEVQRLENEVSQYETRYGPLGGGK
